Measurements reported in PubChem BioAssay AID686937 (Drosophila RNAi Screening Center, 2013).
Assay: 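Knock-downs that reduce output of a secreted reporter enzyme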 (primary screen). Cell system: Drosophila S2 cells expressing secreted horseradish peroxidase. Knock-down reagent: long dsRNA against Drosophila genes. Timing: about 5.5 days (5 days dsRNA, then 12 h reporter induction). Treatment: reporter expression induced after 5 days of dsRNA, read 12 h later; inducer not stated. Detection: 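Chemiluminescent measurement of peroxidase in the medium 12 h after reporter induction, following 5 days of dsRNA, given as a z-score per plate; higher means more secretion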. Reading the numbers: z-score: higher = more reporter secreted into medium.
The screen tested about 23,000 reagents; this is an unselected part of those that have a named target and a result. 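Reduced-secretion tags in replicate 1 do not always agree with the z-scores; no criterion for assigning the tags was given.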 Not all columns of the deposit are shown. Not stated in the record: the amount of reagent.

Scm [DRSC16853] scored z-score, replicate 1 = 0.16.
After knock-down of elav [DRSC18772], the screen gave z-score, replicate 1 = -0.27.
Cand1 [DRSC01992] scored z-score, replicate 1 = 0.34.
Knock-down of CG4880 [DRSC19923] came out at: z-score, replicate 1 = 0.38.
Arl2 [DRSC14117] scored z-score, replicate 1 = 0.18.
Against intr [DRSC14528], the values are z-score, replicate 1 = -0.06.
CG42597 [DRSC03681] showed z-score, replicate 1 = -0.05.
Knock-down of dgrn [DRSC12154] resulted in: z-score, replicate 1 = 0.28.
CheB42b [DRSC22878] showed z-score, replicate 1 = 0.58.
Depletion of CG13587 [DRSC04223] gave: z-score, replicate 1 = 0.08.
After knock-down of Ice1 [DRSC04191], the screen gave z-score, replicate 1 = -4.64.
After knock-down of Fife [DRSC08262] the results were z-score, replicate 1 = 0.02.
Against Fife [DRSC08409] the deposit lists z-score, replicate 1 = 0.1.
Against Fife [DRSC08499], the entry reads z-score, replicate 1 = 0.34.
After knock-down of Arfrp1 [DRSC18417], the record shows z-score, replicate 1 = -0.55.
With knock-down of Dhc98D [DRSC16645], the record shows z-score, replicate 1 = 0.3.
Against arr [DRSC07451] the deposit lists z-score, replicate 1 = 0.33.
Knock-down of U3-55K [DRSC05982] gave: z-score, replicate 1 = 0.1.
For CG10939 [DRSC06019], the entry reads z-score, replicate 1 = -0.45.
CG10939 [DRSC21734] showed z-score, replicate 1 = 3.26.
Knock-down of CR30409 [DRSC22058] came out at: z-score, replicate 1 = 0.27.
Against Gpat4 [DRSC04345] the deposit lists z-score, replicate 1 = -0.24.
For Ipk1 [DRSC04235], the entry reads z-score, replicate 1 = 0.7.
With knock-down of Ipk1 [DRSC04236] the results were z-score, replicate 1 = 0.17.
Ipk1 [DRSC04237] showed z-score, replicate 1 = 0.28.
For Rab3 [DRSC07523], the entry reads z-score, replicate 1 = 0.37.
For 14-3-3zeta [DRSC05028], the entry reads z-score, replicate 1 = 0.4.
Chd64 [DRSC08649] scored z-score, replicate 1 = 0.27.
Depletion of Hsc70-4 [DRSC16711] resulted in: z-score, replicate 1 = -4.59.
For CBP [DRSC17746], the entry reads z-score, replicate 1 = 0.46.
For CG4646 [DRSC06876], the entry reads z-score, replicate 1 = -0.14.
With knock-down of COX6CL [DRSC00895], the record shows z-score, replicate 1 = -0.3.
For CG31007 [DRSC14029], the entry reads z-score, replicate 1 = 0.58.
Silencing of Vsp37A [DRSC18794] came out at: z-score, replicate 1 = 0.29.
With knock-down of FASN3 [DRSC20882] the results were z-score, replicate 1 = 0.47.
After knock-down of CG5376 [DRSC15782], the record shows z-score, replicate 1 = -2.15.
For His-Psi:CR31754 [DRSC22051], the values are z-score, replicate 1 = 0.66.
Knock-down of CG14852 [DRSC14976] came out at: z-score, replicate 1 = 0.72.
CG30110 [DRSC05686] showed z-score, replicate 1 = -0.24.
Knock-down of CG7916 [DRSC01901] gave: z-score, replicate 1 = 0.07.
Knock-down of l(2)37Bb [DRSC02088] came out at: z-score, replicate 1 = 0.08.
CG13841 [DRSC14691] gave z-score, replicate 1 = -0.27.
Against CG17919 [DRSC12571], the entry reads z-score, replicate 1 = 0.21.
CG5276 [DRSC15759] gave z-score, replicate 1 = -0.2.
With knock-down of ppk6 [DRSC06062], the record shows z-score, replicate 1 = 0.25.
exd [DRSC20330] scored z-score, replicate 1 = 0.13.
For CG13220 [DRSC06342] the deposit lists z-score, replicate 1 = 0.13.
With knock-down of Acbp1 [DRSC03093], the record shows z-score, replicate 1 = 0.17.
Knock-down of pcx [DRSC18186] came out at: z-score, replicate 1 = 0.1.
Silencing of pcx [DRSC18187] gave: z-score, replicate 1 = -0.33.
After knock-down of pcx [DRSC18188] the results were z-score, replicate 1 = -0.57.
Knock-down of pcx [DRSC18189] gave: z-score, replicate 1 = -0.1.
Depletion of pcx [DRSC18190] resulted in: z-score, replicate 1 = -0.15.
pcx [DRSC18816] scored z-score, replicate 1 = 0.18.

Part of the list above, reformatted.
gene	DRSC id	z-score, replicate 1
CG14852	DRSC14976	0.72
CG30110	DRSC05686	-0.24
CG7916	DRSC01901	0.07
